Source: PubChem BioAssay AID463116 (University of Pittsburgh Molecular Library Screening Center, 2010)
The list shows a part of the results. Shown are side measurements of this screen, not its main read-out; they come without a call. Compounds called inactive in the main read-out are mostly missing here.

test: blockers of dexamethasone-driven GR-EGFP nuclear import – imaging, high-content imaging, GR-EGFP cells, confirmation (AID 463116); settings: 3617.4 GR-EGFP nuclear translocation imaging, dexamethasone-induced; measured here: cell count per field; at 20 µM

SMILES	z-score
Cn1c(Cl)cnc1C1CC(=O)c2cc(Cl)ccc2O1 (stereo not given)	-0.475
Cc1ccc(Cn2cc(/C=N/Nc3ccc([N+](=O)[O-])cn3)c3ccccc32)cc1	0.528
CNC(=O)c1nnsc1S(=O)c1ccc(Cl)cc1 (stereo not given)	-0.466
O=C1CN(C(=O)Cn2ncc(Cl)c(Cl)c2=O)c2ccccc2N1	0.0476
COc1ccc(CNC(=O)Cn2nnc3ccccc3c2=O)cc1	-0.0452
Cc1ccc(NC(=O)CCl)cc1S(=O)(=O)N1CCCCCC1	-0.271
O=C(Nc1ccc(N2CCOCC2)c(Cl)c1)c1ccc([N+](=O)[O-])o1	-0.424
Cc1cc(C)c(S(=O)(=O)ON2C(=O)c3ccccc3C2=O)cc1C	0.504
CC(C)(C)c1cnnn1-c1ccc(C(=O)CCl)cc1	0.249
N#C/C(=C\c1ccccc1)C(=O)N(c1ccccn1)C1CCCCC1	0.315
Cn1cc([N+](=O)[O-])c(C(=O)Nc2nc(-c3ccc(Cl)cc3)cs2)n1	0.803
Cn1nc([N+](=O)[O-])c(C(C#N)c2nc3ccccc3n2C)c(Cl)c1=O (stereo not given)	-0.0548
COc1ccccc1-c1cc(C(F)(F)F)nc(S(=O)(=O)CCCC(=O)N2CCCCC2C)n1 (stereo not given)	-1.26
C=CS(=O)(=O)c1sc(Cl)c(N2CCOCC2)c1[N+](=O)[O-]	0.534
Cc1cc(N2CCCC2)c(F)cc1/C=C\[N+](=O)[O-]	0.292
CCc1ccccc1NC(=O)CN(C)C(=O)Cn1ncc(Cl)c(Cl)c1=O	-0.558
O=C(CCl)c1ccc2c(c1)CCN2C(=O)C1CCCCC1	0.127
C=CCSc1nc2ccccc2n1C(=O)/C=C/c1cc(OC)c(OC)c(OC)c1	1.08
Cc1ccc(C(=O)/C=C/c2ccccc2)o1	-1
Cc1c(C#N)c(NC(=O)CCl)n(Cc2cccs2)c1C	0.268
COc1cc(/C=C2\SC(=O)NC2=O)ccc1Oc1ccc([N+](=O)[O-])cc1[N+](=O)[O-]	0.279
O=C(Nc1ccccc1)C1=C(c2ccccc2)S(=O)(=O)CCS1(=O)=O	-4.99
Nc1nc2ccc(S(=O)(=O)N3CCCCC3)cc2s1	-0.213
O=C(/C(=C/c1ccc(Cl)cc1)c1nc2ccccc2[nH]1)c1cccs1	-0.103
O=C(Sc1ccccc1)c1cccc(Cn2cc(C(F)(F)F)ccc2=O)c1	0.845
C=CCn1c(C)cc(C(=O)Cn2ncc(Cl)c(Cl)c2=O)c1C	0.515
CS(=O)(=O)c1ccc(S(=O)CC(=O)OCc2ccccc2)c([N+](=O)[O-])c1 (stereo not given)	-2.1
O=C(/C(=C/c1ccc(Cl)cc1)c1nc2ccccc2[nH]1)c1ccccc1	0.696

SMILES	z-score
Cc1ccc(C(=O)NC(C#N)=C(Cl)Cl)cc1	0.103
O=C(/C=C/c1ccccn1)c1cc(Br)ccc1O	0.356
Cc1nc([N+](=O)[O-])c(Br)n1CC(=O)c1ccc2ccccc2c1	0.539
CN(C(=O)CCl)C1CCCc2ccccc21 (stereo not given)	-0.0293
CCN(CC)c1ccc2cc(-c3nc(-c4ccc(OC)cc4)cs3)c(=O)oc2c1	-0.171
COCCN(C(=O)CCl)C(C(=O)NC1CCCCC1)c1ccccc1C (stereo not given)	0.101
COc1ccccc1C(C[N+](=O)[O-])c1c(N)n(C)c(=O)n(C)c1=O (stereo not given)	-0.364
O=C1ON=C(c2ccccc2)/C1=C\c1ccco1	-0.127
CCCCNc1c2c3c(cccc3n(C)c1=O)C(=O)c1ccccc1-2	-0.223
COc1cccc(Nc2ncccc2C(=O)NCc2ccccc2)c1	0.17
CC(=O)Cn1ncc(Br)c(Br)c1=O	0.41
COc1ccc(OC)c(S(=O)(=O)Nc2ccc(O)c3ccccc23)c1	0.0309
COC(=O)c1cc(NC(=O)c2ccccc2)c(=O)oc1/C=C/Nc1ccc(Oc2ccccc2)cc1	0.51
C=CCS(=O)(=O)c1nc2ccccc2s1	0.432
Cc1ccc(OCC(=O)c2ccc(Cl)s2)c([N+](=O)[O-])n1	0.00933
CC(=O)OCCCNc1cc(Sc2ccc(C)cc2)c2nonc2c1[N+](=O)[O-]	-0.113
Cc1ccc(C(C[N+](=O)[O-])Sc2ccc(N)cc2)cc1 (stereo not given)	0.226
O=C(CSC1=Nc2ccccc2C2CC=NN12)Nc1ccc2c(c1)OCO2 (stereo not given)	-0.295
CCCn1c(CC)nc([N+](=O)[O-])c1S(=O)(=O)c1ccccc1	0.972
CCOC(=O)c1c(-c2ccc(C)o2)csc1NC(=S)NC(=O)N(C)C	0.594
CC[n+]1c(/C=C2\Sc3ccccc3N2C)ccc2cccc(C)c21	-0.319
O=c1cc(N=Nc2ccc(Cl)cc2)[nH]c(=O)[nH]1	0.215
CC(NCC(O)COCCC12CC3CC(CC(C3)C1)C2)c1ccccc1 (stereo not given)	-4.8
COc1ccc(CN=Cc2[nH]c3ccc(Br)c(Cl)c3c2O)cc1	-0.031
Nc1c(C(=O)N/N=C/c2ccc(F)cc2)oc2nc(-c3ccccc3)cc(-c3ccco3)c12	-0.855
CCN1CCN(C2=CC3=CC(=C(C#N)C#N)CCC3CC2)CC1 (stereo not given)	-0.731
O=C(CCl)Nc1ccc(-c2ccccc2)cc1	0.0215

Given with bars between the fields: entries from further up
SMILES | z-score
CC(=O)Cn1ncc(Br)c(Br)c1=O | 0.41
COc1ccc(OC)c(S(=O)(=O)Nc2ccc(O)c3ccccc23)c1 | 0.0309
COC(=O)c1cc(NC(=O)c2ccccc2)c(=O)oc1/C=C/Nc1ccc(Oc2ccccc2)cc1 | 0.51
C=CCS(=O)(=O)c1nc2ccccc2s1 | 0.432
Cc1ccc(OCC(=O)c2ccc(Cl)s2)c([N+](=O)[O-])n1 | 0.00933
